Square brackets hold non-standard residues; d marks the D form. Peptide text beside a SMILES is read from it. * marks the point of attachment. Dansyl = CN(C)c1cccc2c(S(=O)(=O)*)cccc12
Test system: P100 fractions harvested from Caco-2 cells
Test: Binding of dansylated peptides to P100 fractions and peptide/particle correlation
Design: key: + positive; +/− equivocal; − negative
Conditions: Table 26
Method: Binding of peptide and/or peptide-coated PLGA particles to membrane (P100) and cytosolic (S100) fractions was assessed by detection of the dansyl moiety incorporated in the peptide. Costar ninety six well ELISA plates were coated with S100 and P100 fractions (100 μg/ml in 0.05 M NaHCO3) overnight at 4° C. The plates were blocked with 0.5% bovine serum albumin in DPBS for 1 h at room temperature and washed 3 times in 1% BSA-DPBS. Peptide-coated particles or peptides were dispersed in the same buffer and added to the plates at concentrations in the range 0.0325-0.5 mg/well. […] The plates were incubated for 1 h at room temperature. The wells were washed 3 times in 1% BSA-DPBS and 100 μl of goat anti-mouse IgGλ:HRP antibody (Southern Biotechnology 1060-05; 1:10,000) was added per well. The plates were incubated for 1 h at room temperature. After washing 3 times in 1% BSA-DPBS 100 μl of TMB substrate (3,3′,5′,5-tetramethylbenzidine; Microwell Peroxidase Substrate System (Kirkegaard and Perry Laboratories 50-76-00)) was added and the optical density was measured at 650 nm at various time intervals.
Binding of dansylated peptides to P100 fractions was assessed to determine if peptide binding was predictive of peptide-coated particle binding.

Row | Compound | Assay correlation (peptide/particle)
1 | STPPSREAYSRPYSVDSDSDTNAKHSSHNRRLRTRSRPN [PAX2] | +/−
2 | SDHALGTNLRSDNAKEPGDYNCCGNGNSTGRKVFNRRRPSAIPT [HAX42] | +
3 | C[C@@H](O)[C@H](NC(=O)[C@@H](N)CCCCNS(=O)(=O)c1cccc2c(N(C)C)cccc12)C(=O)N[C@H](CCCNC(=N)N)C(=O)N[C@@H](CCCCN)C(=O)N[C@@H](CO)C(=O)N[C@@H](CO)C(=O)N[C@H](CCCNC(=N)N)C(=O)N[C@@H](CO)C(=O)N[C@@H](CC(N)=O)C(=O)N1CCC[C@H]1C(=O)N[C@H](CCCNC(=N)N)C(=O)NCC(=O)N[C@H](CCCNC(=N)N)C(=O)N[C@H](CCCNC(=N)N)C(=O)N[C@@H](Cc1c[nH]cn1)C(=O)N1CCC[C@H]1C(=O)NCC(N)=O [ZElan053, H2N-K(dns)TrKSSrSNPrGrrHPG-CONH2] (H-K(Dansyl)T[dR]KSS[dR]SNP[dR]G[dR][dR]HPG-NH2) | −

Source: patent US7135457B1, “Random peptides that bind to gastro-intestinal tract (GIT) transport receptors and related methods” (Cytogen Corporation, priority 1997, dated 2006)
